From paper PMC4022105
No constants are given. Whether binding was seen depends on the method and setting. In cells and extracts the contact can be indirect. Binding can be weak; no strength is given.

What was measured:
[1] = biological target: T1, Desmoglein 3 (Dsg3), endogenous (human (endogenous in HaCaT and human breast skin)) (UniProt P32926); test: co-IP; lysate of human breast skin epidermis in RIPA buffer, antibody on Dynabeads, overnight at 4 °C; pulled down with Dsg3 antibody (legend; the text says anti-actin antibody), Western blot
T1 sequence: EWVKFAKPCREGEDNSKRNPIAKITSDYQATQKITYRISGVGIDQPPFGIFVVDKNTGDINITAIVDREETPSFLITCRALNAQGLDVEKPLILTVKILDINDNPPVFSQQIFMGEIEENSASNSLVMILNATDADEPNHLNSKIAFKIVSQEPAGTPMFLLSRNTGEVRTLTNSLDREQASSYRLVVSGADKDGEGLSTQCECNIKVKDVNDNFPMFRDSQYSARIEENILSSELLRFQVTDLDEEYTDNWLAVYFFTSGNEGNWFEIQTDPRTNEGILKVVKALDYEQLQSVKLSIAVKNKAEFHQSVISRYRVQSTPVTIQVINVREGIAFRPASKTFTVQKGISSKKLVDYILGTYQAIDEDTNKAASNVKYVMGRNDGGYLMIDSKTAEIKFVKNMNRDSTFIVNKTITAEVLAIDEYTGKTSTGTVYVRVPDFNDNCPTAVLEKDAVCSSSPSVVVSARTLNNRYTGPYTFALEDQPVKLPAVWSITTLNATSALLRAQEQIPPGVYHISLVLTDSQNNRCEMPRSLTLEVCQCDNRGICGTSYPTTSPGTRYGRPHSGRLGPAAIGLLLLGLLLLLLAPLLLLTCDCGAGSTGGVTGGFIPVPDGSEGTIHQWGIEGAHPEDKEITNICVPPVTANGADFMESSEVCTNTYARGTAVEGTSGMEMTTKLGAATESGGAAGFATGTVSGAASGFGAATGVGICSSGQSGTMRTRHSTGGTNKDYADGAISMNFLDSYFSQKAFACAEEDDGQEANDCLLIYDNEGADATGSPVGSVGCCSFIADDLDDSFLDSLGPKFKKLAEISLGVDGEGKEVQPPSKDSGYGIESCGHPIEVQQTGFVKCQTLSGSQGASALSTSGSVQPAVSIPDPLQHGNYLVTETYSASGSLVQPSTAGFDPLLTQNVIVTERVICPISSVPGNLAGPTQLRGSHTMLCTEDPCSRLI

[2] = biological target: T1, Desmoglein 3 (Dsg3), endogenous (human (endogenous in HaCaT and human breast skin)); test: co-IP; Triton X-100 soluble fraction of HaCaT cells (1% Triton X-100 lysis buffer, 150 mM NaCl, EGTA, EDTA), pulled down with mouse anti-Dsg3 antibody, Western blot
[3] = biological target: T1, Desmoglein 3 (Dsg3), endogenous (human (endogenous in HaCaT and human breast skin)); test: co-IP; HaCaT lysate in RIPA buffer (1% NP-40), antibody on Dynabeads, overnight at 4 °C; pulled down with Dsg3 antibody (legend; the text says anti-actin antibody), Western blot

Measured: binding

E-cadherin, endogenous
binds: all assays above
